According to patent publication US6703371B1, “Preparations for reducing oxygen consumption during physical efforts” (priority 1999, dated 2004):
Several values for one entry are separate records, joined by “and”; a condition that tells them apart may be missing. Identical values can stand only once. For some of these results: At least one read-out could not be matched to a standard name with certainty. For some of these results: For at least one compound, name, drawing or mass did not settle the structure.

Columns and labels:
[1] = Oxygen-sparing action during physical work, general findings in the description; type: in vivo; settings: result in words; for Oxygen demand after administration: even occasionally increased
test subject = test: Bicycle ergometer test at 100 W: antagonism between inactive (1st dosage) and active (2nd dosage) substances (Example 1b); type: in vivo, human; settings: 1st dosage 7 mg in 20 ml of water; 10-minute test at 100 W
Experimental: 13 to Mar. 6, 1999, with a subject in good physical condition under standard conditions. The subject was required each morning in the fasting state to perform successively (without interruption) at mechanical power output of 100 W, 125 W and 150 W, each lasting 10 minutes (total test duration 30 minutes each time). […] The heat production induced by mechanical exertion was calculated from the changes in the heart rate. An alternative possibility is also to determine it on the basis of the increase in humidity caused by the perspiration (the tests are carried out in a closed room) or reduction in weight (1 g of water=2.26 kJ). […]
It is known that the oxygen uptake can be determined by measuring the heart rate as a function of the mechanical exertion. […] Since the stroke volume is essentially constant irrespective of the intensity of the mechanical work, and the increased oxygen demand caused by the increase in work results in an increase in the heart rate, the quantity of the transported oxygen can be established by determining the additional heartbeats caused by the work. […]

CNC1=Nc2ccc(Cl)cc2C(c2ccccc2)=[N+]([O-])C1 [chlordiazepoxide]
Oxygen demand after administration [1]: not reduced

O=C1Nc2ccc(Cl)cc2C(c2ccccc2)=NC1O (stereo not shown) [oxazepam]
Average heart rate after 1st dosage (test subject): 137.6 per minute and 125.3 per minute
Oxygen demand after administration [1]: not reduced

COC(=O)[C@H]1[C@@H](OC(=O)c2ccccc2)C[C@@H]2CC[C@H]1N2C [cocaine]
Suitability for reducing the oxygen consumption during physical work [1]: suitable
